Most values lie at the floor of the assay. Slopes are relative: functional sequences can read slightly below zero.
The substances below were run on Saccharomyces cerevisiae PS128 hsf1 delta, HSF1(1-493) fusion (assay: growth estimate (transactivation domain function in HSF1 fusion, heat-shock survival) (a.u. (slope of normalised read count over time)); higher = stronger growth at 37°C, i.e. more transactivation activity). Conditions: library: random library.
Experimental: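 Random 60-nt DNA library encoding peptides of up to 20 aa, fused to the C-terminus of yeast HSF1 residues 1-493 (C-terminal TAD deleted) and expressed from the native HSF1 promoter on a CEN plasmid in hsf1-deleted S. cerevisiae PS128. Cells were selected at 37°C on -trp 5-FOA plates for 0, 2, 4, 6 and 8 days and amplicons were sequenced. Growth estimate is the slope of a robust linear fit of total-sum-normalised read counts (normalised to the first time point) over time, using at least 2 replicates. Sequences are classed functional (TAD activity) above a threshold of -0.13, set from stop-codon control sequences.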

| Substance | growth estimate |
| --- | --- |
| DEGP | < -0.25 |
| DEHA | < -0.25 |
| DELYKVQRSHVT | < -0.25 |
| DEPDV | < -0.25 |
| DEPFTYACLSVIRRPNGTVR | < -0.25 |
| DERNLC | < -0.25 |
| DESPKRGLHTDVCRFEGRS | < -0.25 |
| DEWSYWVEFPPRGARISVGG | < -0.25 |
| DFARKG | < -0.25 |
| DFHVAGDRSPPAVHISSARG | < -0.25 |
| DFLCCVTLNPCLLFQKVVGS | < -0.25 |
| DFRIFPGSSSARRLLLNDAI | < -0.25 |
| DFTRALMMSRPRHRWAGVVT | < -0.25 |
| DFVIKRTLVTMPGRLRRGGP | < -0.25 |
| DFYWPARNASMAQ | < -0.25 |
| DGAQPIPTGSWGCTIVPAQL | -0.235 |
| DGERI | < -0.25 |
| DGGAHRQ | < -0.25 |
| DGGFPATGHYLILSPAGWAA | < -0.25 |
| DGIRECCRLRTSV | < -0.25 |
| DGL | -0.243 |
| DGLQSNWQRSFVFGFIS | < -0.25 |
| DGLQYRHVWCKVMIG | < -0.25 |
| DGLSYIEGK | < -0.25 |

| Substance | growth estimate |
| --- | --- |
| DGLTTQLTGWFPVALARTIL | < -0.25 |
| DGMANVVPAVNLAS | < -0.25 |
| DGMIW | < -0.25 |
| DGMSLKPEWILQVDSLRCFG | < -0.25 |
| DGNLFRKGES | < -0.25 |
| DGPY | < -0.25 |
| DGQAQG | < -0.25 |
| DGQAWQAAAVSSRT | < -0.25 |
| DGQRRLLCNLD | < -0.25 |
| DGRHRKYSITLTEL | < -0.25 |
| DGRIIKHRPDGHGTYPLHNA | < -0.25 |
| DGRLSLS | < -0.25 |
| DGS | < -0.25 |
| DGSGAKRD | < -0.25 |
| DGSGLIDLNRPRAFRITYHS | < -0.25 |
| DGSMKQTQPTLW | < -0.25 |
| DGTPRTSTRWSEVVA | < -0.25 |
| DGVIPQ | < -0.25 |
| DGVVLSLTARHRVCGTT | < -0.25 |
| DGWAGARTTPLLLSLAIVEP | < -0.25 |
| DHGFSYPNVRI | < -0.25 |
| DHIQIREGEGLGCEASRTVH | < -0.25 |
| DHKRGAATLCTRSLHQYSGL | < -0.25 |
| DHSQLIANNKVVSAPLRAMG | < -0.25 |

| Substance | growth estimate |
| --- | --- |
| DHSVHSFVVVYEASYP | < -0.25 |
| DIDAVGSL | < -0.25 |
| DIG | < -0.25 |
| DIGDSTHGIVTPD | < -0.25 |
| DILYSALVRSLDPGYRYIRP | < -0.25 |
| DIPNDGWVINVHASWYMGVA | < -0.25 |
| DIQ | < -0.25 |
| DISKSRKRTTWDACRPVVPA | < -0.25 |
| DISL | < -0.25 |
| DIVAEGETQFPGIWRAWTGP | < -0.25 |
| DKAILIRLYALRSYVYTRAS | < -0.25 |
| DKARVDPAARRQVFIQQMVW | < -0.25 |
| DKATLFCQIDRSPFLVTALS | -0.246 |
| DKEGTL | < -0.25 |
| DKGGPSRRHDSYATTHGELG | < -0.25 |
| DKGMLDTHLGRGCRAREMRK | < -0.25 |
| DKHSRLLDPANHYAPEMAIA | < -0.25 |
| DKLQQEHIVPLRPSNPKIQT | < -0.25 |
| DKNEIAWVGSRRQIDTPMH | < -0.25 |
| DKPWDPLSRHLPGLLDGGQE | < -0.25 |
| DKQIQAGCPSDH | < -0.25 |
| DKRETRRQDTATVRTPRRIP | < -0.25 |
| DKRLVNRMLGSMMGVSTVEC | < -0.25 |
| DKRRGPLRKR | < -0.25 |

Look-ups from the entries so far.
growth estimate with DILYSALVRSLDPGYRYIRP is entered as < -0.25
growth estimate with DIVAEGETQFPGIWRAWTGP is entered as < -0.25

Next part

| Substance | growth estimate |
| --- | --- |
| DKTRAARIQGS | < -0.25 |
| DKVIRVESWVLWI | < -0.25 |
| DKVISPHFSRDCRLTYTEEC | < -0.25 |
| DKVKPCRRVVVPRLTE | < -0.25 |
| DKVNKRSMKLCSSWLAP | < -0.25 |
| DKW | < -0.25 |
| DLACAHWCGGSRKLVQW | < -0.25 |
| DLCWSGSDSRSSYYR | < -0.25 |
| DLDLMSRREGQILARATVSA | < -0.25 |
| DLFVAHPLYPGLD | -0.162 |
| DLGCRFVLRRPRIRKPLR | < -0.25 |
| DLGNRCNDLYGRL | < -0.25 |
| DLHFSRSRDLRTACC | < -0.25 |
| DLILLQISNLYR | < -0.25 |
| DLIMGVCMYRQPEFNPSINI | < -0.25 |
| DLKIERKP | < -0.25 |
| DLLIAPG | < -0.25 |
| DLLIRSIVLQKDTQADTSIR | < -0.25 |
| DLLSPRHFEVHYALYHGHTP | < -0.25 |
| DLPSKVVQQQVLDRGVRTAS | < -0.25 |
| DLQMAGGMGANVEVCREPFT | < -0.25 |
| DLRRMQTVGQSWAHAFGTWL | -0.246 |
| DLSRLNIRLGILPTAGTDI | < -0.25 |

Part of the list above, with bars between the fields:
Substance | growth estimate
DKTRAARIQGS | < -0.25
DKVIRVESWVLWI | < -0.25
DKVISPHFSRDCRLTYTEEC | < -0.25
DKVKPCRRVVVPRLTE | < -0.25
DKVNKRSMKLCSSWLAP | < -0.25
DKW | < -0.25
DLACAHWCGGSRKLVQW | < -0.25
DLCWSGSDSRSSYYR | < -0.25
DLDLMSRREGQILARATVSA | < -0.25
DLFVAHPLYPGLD | -0.162
DLGCRFVLRRPRIRKPLR | < -0.25
DLGNRCNDLYGRL | < -0.25
DLHFSRSRDLRTACC | < -0.25
DLILLQISNLYR | < -0.25
DLIMGVCMYRQPEFNPSINI | < -0.25
DLKIERKP | < -0.25
DLLIAPG | < -0.25
DLLIRSIVLQKDTQADTSIR | < -0.25
DLLSPRHFEVHYALYHGHTP | < -0.25
DLPSKVVQQQVLDRGVRTAS | < -0.25
DLQMAGGMGANVEVCREPFT | < -0.25
DLRRMQTVGQSWAHAFGTWL | -0.246

— the supplement of paper PMC5949888
